These are yes or no findings as the source states them, for the method shown. In cells and extracts the contact can be indirect. Some binding calls cover weakened binding; strength is not graded here.

Sequences of proteins named here, by UniProt entry; tags and fusion partners are left off.
UniProt Q86WV6: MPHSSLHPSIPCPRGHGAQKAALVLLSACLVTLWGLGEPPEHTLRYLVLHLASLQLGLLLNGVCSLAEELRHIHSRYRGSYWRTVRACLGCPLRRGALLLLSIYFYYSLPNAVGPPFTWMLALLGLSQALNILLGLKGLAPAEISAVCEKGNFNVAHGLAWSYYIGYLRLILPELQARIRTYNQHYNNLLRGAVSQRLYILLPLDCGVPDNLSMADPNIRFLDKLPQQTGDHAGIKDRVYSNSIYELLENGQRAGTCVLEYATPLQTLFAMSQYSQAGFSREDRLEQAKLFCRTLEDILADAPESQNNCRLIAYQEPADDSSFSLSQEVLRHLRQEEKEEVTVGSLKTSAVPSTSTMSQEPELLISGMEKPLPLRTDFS
UniProt P19474: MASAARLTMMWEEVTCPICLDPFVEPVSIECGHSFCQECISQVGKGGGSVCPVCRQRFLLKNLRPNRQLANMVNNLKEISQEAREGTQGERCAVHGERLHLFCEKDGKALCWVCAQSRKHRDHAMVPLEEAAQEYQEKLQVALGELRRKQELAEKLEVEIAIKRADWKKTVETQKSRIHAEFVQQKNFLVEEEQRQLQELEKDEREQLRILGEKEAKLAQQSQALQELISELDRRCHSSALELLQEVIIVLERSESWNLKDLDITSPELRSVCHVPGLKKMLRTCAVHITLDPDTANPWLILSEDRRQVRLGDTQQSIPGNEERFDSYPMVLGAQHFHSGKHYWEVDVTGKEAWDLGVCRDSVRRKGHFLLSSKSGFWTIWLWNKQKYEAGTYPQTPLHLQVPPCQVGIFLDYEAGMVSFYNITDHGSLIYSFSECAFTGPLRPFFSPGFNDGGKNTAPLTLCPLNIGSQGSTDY

For 1 substance, binding results are on record in publication PMC12322227.

For assay [1], the target named is Stimulator of interferon genes (STING), human, endogenous (human (endogenous in PBMCs and HEK293)) (UniProt Q86WV6). Description: co-IP; HEK293 lysate; anti-STING antibody or normal rabbit IgG on Dynabeads Protein G, 4 °C, 2 h; blot with anti-TRIM21 and anti-STING.
Assay [2] shares this target. Description: proximity ligation; endogenous proteins in human PBMCs and mouse splenocytes; antibodies against TRIM21 and STING; NaveniFlex Cell MR Atto647N; confocal microscopy.

For “Tripartite motif-containing 21 (TRIM21), human, endogenous (from UniProt P19474 1-475)”, the binding result in assay [1] and in assay [2] was “binds” throughout.
